Assay results taken from US20230146841A1, “TNFAIP3 AS A BIOMARKER FOR AUTOIMMUNE DISEASES” (The Brigham and Women's Hospital, Inc., priority 2020, published 2023).
Entries after “also recorded” stand apart in the source; their conditions may differ. At least one structure is not confirmed: it was looked up by name or label, or the drawing left a doubt.

Test system: TNFAIP3 expression in PBMCs
Assay: TNFAIP3 protein expression in cultured PBMCs of MOG-AAD patients by SDS-PAGE and western blot
Format: cell-based, human

C[C@@H]1C[C@H]2[C@@H]3CCC4=CC(=O)C=C[C@]4(C)[C@@]3(F)[C@@H](O)C[C@]2(C)[C@@]1(O)C(=O)CO [dexamethasone]
TNFAIP3 expression as compared to MOG antigen alone stimulation (PBMCs of MOG-AAD patient #2 (relapse #2.1, non-relapse #2.3), MOG + dexamethasone 1 μg+100 nM and 10 μg+1000 nM, 4, 16 and 24 h, more so in non-relapse sample and at higher dose): increased
TNFAIP3 expression, relapse versus non-relapse sample (PBMCs of untreated MOG-AAD patient #3, MOG antigen 1 μg/ml + dexamethasone 100 nM, 4, 8 and 16 h): comparable
TNFAIP3 expression, relapse sample as compared to non-relapse sample (PBMCs of untreated MOG-AAD patient #3, MOG antigen 1 μg/ml + dexamethasone 100 nM, 24 h): expression increased after 24 h of stimulation in the relapse sample; also recorded: partially rescued the expression of TNFAIP3 protein
